# From publication PMC12099056, “Targeting the Exonic Circular OGT RNA/O-GlcNAc Transferase/Forkhead Box C1 Axis Inhibits Asparagine- and Alanine-Mediated Ferroptosis Repression in Neuroblastoma Progression” (Research, 2025)
# By UniProt entry, the sequences of proteins in these tests, tags left out.
# UniProt Q12948: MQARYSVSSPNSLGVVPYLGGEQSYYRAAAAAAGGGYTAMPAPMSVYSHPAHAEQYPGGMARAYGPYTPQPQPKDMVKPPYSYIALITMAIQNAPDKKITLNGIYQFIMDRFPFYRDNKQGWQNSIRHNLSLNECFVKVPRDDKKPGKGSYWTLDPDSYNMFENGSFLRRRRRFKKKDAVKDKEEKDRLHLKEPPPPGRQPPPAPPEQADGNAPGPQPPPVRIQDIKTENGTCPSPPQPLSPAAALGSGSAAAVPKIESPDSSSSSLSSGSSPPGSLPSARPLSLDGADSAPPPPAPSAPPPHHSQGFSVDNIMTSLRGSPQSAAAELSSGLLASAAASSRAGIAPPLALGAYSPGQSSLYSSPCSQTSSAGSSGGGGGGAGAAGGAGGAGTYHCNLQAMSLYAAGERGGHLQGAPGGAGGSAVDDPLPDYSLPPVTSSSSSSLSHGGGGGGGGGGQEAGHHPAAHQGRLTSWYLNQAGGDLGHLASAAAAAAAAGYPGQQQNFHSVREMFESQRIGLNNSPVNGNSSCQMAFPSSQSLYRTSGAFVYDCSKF
# Results are given in words; binding and its absence hold for the method and conditions named. In cells and extracts the contact can be indirect. A yes stands for co-enrichment or nearness to the bait. Other partners may have been found.
# Target: forkhead box C1 (human (endogenous in IMR-32 and SK-N-BE(2))) (UniProt Q12948)
# Assay: affinity purification with mass spectrometry; co-IP with FOXC1 antibody from IMR-32 cell lysates, Protein A/G magnetic beads, mass spectrometry
binder,measurement,value
"O-GlcNAc transferase (enzyme, UniProt O15294 1-1046) MASSVGNVADSTEPTKRMLSFQGLAELAHREYQAGDFEAAERHCMQLWRQEPDNTGVLLLLSSIHFQCRRLDRSAHFSTLAIKQNPLLAEAYSNLGNVYKERGQLQEAIEHYRHALRLKPDFIDGYINLAAALVAAGDMEGAVQAYVSALQYNPDLYCVRSDLGNLLKALGRLEEAKACYLKAIETQPNFAVAWSNLGCVFNAQGEIWLAIHHFEKAVTLDPNFLDAYINLGNVLKEARIFDRAVAAYLRALSLSPNHAVVHGNLACVYYEQGLIDLAIDTYRRAIELQPHFPDAYCNLANALKEKGSVAEAEDCYNTALRLCPTHADSLNNLANIKREQGNIEEAVRLYRKALEVFPEFAAAHSNLASVLQQQGKLQEALMHYKEAIRISPTFADAYSNMGNTLKEMQDVQGALQCYTRAIQINPAFADAHSNLASIHKDSGNIPEAIASYRTALKLKPDFPDAYCNLAHCLQIVCDWTDYDERMKKLVSIVADQLEKNRLPSVHPHHSMLYPLSHGFRKAIAERHGNLCLDKINVLHKPPYEHPKDLKLSDGRLRVGYVSSDFGNHPTSHLMQSIPGMHNPDKFEVFCYALSPDDGTNFRVKVMAEANHFIDLSQIPCNGKAADRIHQDGIHILVNMNGYTKGARNELFALRPAPIQAMWLGYPGTSGALFMDYIITDQETSPAEVAEQYSEKLAYMPHTFFIGDHANMFPHLKKKAVIDFKSNGHIYDNRIVLNGIDLKAFLDSLPDVKIVKMKCPDGGDNADSSNTALNMPVIPMNTIAEAVIEMINRGQIQITINGFSISNGLATTQINNKAATGEEVPRTIIVTTRSQYGLPEDAIVYCNFNQLYKIDPSTLQMWANILKRVPNSVLWLLRFPAVGEPNIQQYAQNMGLPQNRIIFSPVAPKEEHVRRGQLADVCLDTPLCNGHTTGMDVLWAGTPMVTMPGETLASRVAASQLTCLGCLELIAKNRQEYEDIAVKLGTDLEYLKKVRGKVWKQRISSPLFNTKQYTMELERLYLQMWEHYAAGNKPDHMIKPVEVTESA",binding,binds
